The text below walks through data of the supplement of paper PMC10849652.

By UniProt entry, the sequences of proteins in these tests, tags left out. Where a name states a change or a piece, a line headed by the entry shows the natural chain unless it says otherwise.
UniProt Q9HBU6: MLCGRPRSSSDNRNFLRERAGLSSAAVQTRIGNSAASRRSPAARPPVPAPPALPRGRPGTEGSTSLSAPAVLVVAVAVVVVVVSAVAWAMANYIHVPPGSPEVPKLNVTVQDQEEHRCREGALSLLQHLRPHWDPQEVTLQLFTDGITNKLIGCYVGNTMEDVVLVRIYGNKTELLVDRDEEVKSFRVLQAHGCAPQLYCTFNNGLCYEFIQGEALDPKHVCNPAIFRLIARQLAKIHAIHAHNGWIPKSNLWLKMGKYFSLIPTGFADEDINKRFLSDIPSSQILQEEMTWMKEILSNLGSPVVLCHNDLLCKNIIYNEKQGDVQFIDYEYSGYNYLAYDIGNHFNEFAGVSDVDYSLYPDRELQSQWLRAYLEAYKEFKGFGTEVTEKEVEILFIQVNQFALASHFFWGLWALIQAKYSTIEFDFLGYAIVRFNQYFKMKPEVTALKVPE
UniProt Q86UY5: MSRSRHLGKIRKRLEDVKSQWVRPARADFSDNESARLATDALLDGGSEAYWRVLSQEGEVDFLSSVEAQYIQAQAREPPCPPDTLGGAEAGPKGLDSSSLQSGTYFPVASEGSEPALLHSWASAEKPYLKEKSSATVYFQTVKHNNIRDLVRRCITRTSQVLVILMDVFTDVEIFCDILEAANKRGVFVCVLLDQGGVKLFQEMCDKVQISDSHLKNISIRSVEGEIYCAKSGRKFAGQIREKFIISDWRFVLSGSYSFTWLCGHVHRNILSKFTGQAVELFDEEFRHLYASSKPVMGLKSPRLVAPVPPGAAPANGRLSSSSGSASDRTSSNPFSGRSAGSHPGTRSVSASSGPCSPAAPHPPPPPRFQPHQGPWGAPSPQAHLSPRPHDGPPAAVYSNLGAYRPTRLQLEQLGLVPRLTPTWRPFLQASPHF
UniProt Q9Y5Q0: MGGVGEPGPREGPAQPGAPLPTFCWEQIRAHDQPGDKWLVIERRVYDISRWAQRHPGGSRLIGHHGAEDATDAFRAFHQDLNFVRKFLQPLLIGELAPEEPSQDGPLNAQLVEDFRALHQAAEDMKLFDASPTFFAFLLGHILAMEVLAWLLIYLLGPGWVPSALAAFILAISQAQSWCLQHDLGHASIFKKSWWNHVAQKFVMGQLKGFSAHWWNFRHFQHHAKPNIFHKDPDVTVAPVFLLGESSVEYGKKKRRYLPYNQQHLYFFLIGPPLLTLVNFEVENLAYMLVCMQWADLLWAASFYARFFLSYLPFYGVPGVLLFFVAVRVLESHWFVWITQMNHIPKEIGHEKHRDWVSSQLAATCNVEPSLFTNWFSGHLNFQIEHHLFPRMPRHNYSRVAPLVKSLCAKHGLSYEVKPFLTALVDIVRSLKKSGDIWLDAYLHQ
UniProt Q96A26: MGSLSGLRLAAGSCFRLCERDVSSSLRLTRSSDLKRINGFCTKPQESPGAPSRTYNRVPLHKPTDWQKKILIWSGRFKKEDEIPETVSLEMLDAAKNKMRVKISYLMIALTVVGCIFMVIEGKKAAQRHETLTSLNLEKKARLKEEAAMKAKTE
UniProt Q15910, whole entry, looked up: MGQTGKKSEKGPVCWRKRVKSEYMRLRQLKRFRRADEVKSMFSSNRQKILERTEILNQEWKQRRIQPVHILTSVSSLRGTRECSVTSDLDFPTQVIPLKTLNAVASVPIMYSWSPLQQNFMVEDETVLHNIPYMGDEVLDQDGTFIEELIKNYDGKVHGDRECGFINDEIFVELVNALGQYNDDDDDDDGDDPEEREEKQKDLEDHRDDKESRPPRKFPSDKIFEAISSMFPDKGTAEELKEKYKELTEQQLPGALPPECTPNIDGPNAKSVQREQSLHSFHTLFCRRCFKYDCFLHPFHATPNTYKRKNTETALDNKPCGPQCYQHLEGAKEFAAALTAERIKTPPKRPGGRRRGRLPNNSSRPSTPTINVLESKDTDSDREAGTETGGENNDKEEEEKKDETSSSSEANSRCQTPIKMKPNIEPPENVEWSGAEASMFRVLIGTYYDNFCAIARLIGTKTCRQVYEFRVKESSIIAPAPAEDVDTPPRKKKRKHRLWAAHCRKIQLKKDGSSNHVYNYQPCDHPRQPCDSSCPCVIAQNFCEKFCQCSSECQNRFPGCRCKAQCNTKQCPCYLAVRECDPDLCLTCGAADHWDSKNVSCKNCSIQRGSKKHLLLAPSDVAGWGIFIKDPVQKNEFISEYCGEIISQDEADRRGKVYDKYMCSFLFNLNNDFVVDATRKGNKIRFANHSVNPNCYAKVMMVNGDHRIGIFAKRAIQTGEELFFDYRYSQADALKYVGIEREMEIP
UniProt Q96A65: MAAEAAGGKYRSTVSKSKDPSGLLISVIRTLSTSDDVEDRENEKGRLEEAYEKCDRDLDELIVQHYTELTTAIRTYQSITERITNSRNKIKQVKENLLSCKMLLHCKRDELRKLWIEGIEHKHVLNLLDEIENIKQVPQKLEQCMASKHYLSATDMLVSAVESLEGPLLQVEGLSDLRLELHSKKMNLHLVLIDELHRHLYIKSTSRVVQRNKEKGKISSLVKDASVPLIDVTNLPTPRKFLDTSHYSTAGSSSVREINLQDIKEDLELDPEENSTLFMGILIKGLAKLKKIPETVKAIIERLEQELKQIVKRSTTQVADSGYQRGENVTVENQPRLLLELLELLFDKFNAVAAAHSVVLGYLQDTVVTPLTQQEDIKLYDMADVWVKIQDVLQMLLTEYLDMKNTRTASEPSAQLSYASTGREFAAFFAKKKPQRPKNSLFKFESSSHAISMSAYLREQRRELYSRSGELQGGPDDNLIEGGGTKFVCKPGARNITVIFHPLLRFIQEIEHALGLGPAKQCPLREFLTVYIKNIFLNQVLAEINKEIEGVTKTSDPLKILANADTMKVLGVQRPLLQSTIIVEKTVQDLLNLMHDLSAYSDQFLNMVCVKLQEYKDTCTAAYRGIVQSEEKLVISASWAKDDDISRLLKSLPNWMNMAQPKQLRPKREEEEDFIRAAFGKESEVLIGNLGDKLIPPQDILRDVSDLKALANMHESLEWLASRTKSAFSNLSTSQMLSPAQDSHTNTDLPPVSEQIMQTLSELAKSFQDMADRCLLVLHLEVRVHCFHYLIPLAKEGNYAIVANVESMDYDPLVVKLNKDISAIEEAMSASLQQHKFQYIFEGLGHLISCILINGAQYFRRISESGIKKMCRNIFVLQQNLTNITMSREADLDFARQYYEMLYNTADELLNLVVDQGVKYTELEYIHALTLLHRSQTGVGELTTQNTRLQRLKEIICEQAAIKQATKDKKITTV
UniProt Q9NPD3, whole entry, looked up: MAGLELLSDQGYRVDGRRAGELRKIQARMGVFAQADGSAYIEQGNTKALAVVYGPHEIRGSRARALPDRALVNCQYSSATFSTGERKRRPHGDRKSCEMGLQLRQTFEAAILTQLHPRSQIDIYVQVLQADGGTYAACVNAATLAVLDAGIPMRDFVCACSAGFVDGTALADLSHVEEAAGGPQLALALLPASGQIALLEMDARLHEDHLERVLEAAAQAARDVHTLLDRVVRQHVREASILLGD
UniProt Q8TAG9: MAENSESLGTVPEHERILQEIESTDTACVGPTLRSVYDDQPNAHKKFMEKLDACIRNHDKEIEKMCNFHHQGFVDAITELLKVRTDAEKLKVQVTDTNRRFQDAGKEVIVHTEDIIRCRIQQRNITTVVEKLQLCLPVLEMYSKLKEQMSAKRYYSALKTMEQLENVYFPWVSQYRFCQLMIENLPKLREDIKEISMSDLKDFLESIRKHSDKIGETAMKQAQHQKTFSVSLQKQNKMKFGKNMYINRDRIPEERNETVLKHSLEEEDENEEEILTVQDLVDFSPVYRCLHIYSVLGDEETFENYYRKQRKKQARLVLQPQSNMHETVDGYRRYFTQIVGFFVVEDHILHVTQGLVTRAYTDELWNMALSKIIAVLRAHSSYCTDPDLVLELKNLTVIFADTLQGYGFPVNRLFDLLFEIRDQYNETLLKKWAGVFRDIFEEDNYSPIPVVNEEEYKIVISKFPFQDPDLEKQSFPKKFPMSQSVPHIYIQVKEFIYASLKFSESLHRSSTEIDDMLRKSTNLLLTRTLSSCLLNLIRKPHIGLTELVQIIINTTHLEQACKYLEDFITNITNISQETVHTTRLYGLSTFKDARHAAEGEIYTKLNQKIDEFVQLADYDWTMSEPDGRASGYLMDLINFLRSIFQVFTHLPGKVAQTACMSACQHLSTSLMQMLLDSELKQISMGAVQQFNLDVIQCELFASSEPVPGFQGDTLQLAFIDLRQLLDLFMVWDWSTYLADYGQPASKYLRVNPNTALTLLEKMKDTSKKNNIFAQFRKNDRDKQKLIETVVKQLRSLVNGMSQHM
UniProt Q9NSI2: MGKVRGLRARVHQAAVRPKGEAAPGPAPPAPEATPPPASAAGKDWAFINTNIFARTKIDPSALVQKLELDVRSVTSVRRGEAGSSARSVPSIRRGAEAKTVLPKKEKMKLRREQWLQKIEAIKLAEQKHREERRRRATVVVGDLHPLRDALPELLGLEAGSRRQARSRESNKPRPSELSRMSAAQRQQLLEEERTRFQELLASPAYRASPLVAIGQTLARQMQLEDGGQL
UniProt P10768: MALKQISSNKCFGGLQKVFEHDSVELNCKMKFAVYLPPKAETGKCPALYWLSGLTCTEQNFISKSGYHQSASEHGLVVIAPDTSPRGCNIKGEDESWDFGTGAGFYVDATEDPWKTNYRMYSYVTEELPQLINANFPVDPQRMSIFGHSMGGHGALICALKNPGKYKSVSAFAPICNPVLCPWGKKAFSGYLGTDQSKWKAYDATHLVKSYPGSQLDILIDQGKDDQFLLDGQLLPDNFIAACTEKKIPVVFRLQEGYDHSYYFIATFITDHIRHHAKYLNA
UniProt O60645: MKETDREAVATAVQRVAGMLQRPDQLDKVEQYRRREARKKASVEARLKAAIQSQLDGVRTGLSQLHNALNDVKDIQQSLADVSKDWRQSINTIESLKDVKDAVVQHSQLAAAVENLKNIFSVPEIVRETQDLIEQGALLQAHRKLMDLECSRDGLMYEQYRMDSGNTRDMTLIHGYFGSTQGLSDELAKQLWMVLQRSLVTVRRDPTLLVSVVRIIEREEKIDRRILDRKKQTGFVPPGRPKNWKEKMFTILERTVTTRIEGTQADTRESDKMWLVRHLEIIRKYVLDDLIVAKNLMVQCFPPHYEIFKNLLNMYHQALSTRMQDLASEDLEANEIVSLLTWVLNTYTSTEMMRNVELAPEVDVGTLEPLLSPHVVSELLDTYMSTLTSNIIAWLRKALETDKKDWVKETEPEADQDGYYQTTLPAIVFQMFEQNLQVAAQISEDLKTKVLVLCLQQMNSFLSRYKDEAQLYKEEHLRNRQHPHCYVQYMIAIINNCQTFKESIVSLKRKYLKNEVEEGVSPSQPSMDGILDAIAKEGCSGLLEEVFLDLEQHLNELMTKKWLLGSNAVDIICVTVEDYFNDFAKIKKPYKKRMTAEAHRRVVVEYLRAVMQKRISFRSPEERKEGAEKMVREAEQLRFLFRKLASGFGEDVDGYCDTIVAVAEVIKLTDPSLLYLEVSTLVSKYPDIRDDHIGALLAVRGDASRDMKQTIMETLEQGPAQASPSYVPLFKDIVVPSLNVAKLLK
UniProt Q99504: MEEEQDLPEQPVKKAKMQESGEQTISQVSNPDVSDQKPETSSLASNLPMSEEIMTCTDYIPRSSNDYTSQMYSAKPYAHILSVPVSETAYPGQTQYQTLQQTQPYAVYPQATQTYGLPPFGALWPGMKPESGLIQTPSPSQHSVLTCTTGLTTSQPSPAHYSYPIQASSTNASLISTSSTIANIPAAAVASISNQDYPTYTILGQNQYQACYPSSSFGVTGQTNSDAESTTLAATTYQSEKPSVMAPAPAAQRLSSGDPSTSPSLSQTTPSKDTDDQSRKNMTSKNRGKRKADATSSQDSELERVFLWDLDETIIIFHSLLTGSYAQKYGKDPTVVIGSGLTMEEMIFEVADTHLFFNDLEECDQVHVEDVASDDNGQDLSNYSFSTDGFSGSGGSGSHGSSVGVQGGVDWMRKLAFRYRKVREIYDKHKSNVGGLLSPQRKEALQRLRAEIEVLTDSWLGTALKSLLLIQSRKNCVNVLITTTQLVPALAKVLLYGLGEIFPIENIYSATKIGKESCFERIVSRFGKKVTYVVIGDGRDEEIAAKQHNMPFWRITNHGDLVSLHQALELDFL
UniProt Q96DZ1: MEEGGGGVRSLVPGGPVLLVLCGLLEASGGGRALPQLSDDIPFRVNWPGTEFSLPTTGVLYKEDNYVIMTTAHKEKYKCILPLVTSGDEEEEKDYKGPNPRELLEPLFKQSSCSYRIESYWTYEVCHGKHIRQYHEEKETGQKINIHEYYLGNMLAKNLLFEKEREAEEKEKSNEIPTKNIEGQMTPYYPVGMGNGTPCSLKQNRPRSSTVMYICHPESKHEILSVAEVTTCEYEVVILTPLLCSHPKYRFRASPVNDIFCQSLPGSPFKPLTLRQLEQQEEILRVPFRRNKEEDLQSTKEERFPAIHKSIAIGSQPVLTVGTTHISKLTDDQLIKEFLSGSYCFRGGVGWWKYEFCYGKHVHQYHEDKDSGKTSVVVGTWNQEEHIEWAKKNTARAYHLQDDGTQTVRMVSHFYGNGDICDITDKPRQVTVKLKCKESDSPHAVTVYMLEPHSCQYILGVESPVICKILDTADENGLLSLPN

The other results are listed elsewhere or left out.

Compound in this assay: CNc1nc(-c2ccc3c(N)n[nH]c3c2)cc(N2C[C@@H](C(=O)NC3CCCCC3)CC[C@H]2C)n1
Description: log2 fold change, soluble protein after heating vs DMSO (PISA); higher = thermal stabilisation; K562 lysate, 10 uM; active = over 0.2 and 3.5 SD of the protein, either way, in both replicates (recomputed). A digest of the protocol:
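Soluble protein was defined as the supernatant remaining after 21,000xg for 90 min, following pooling of heated aliquots and adjustment to 0.5% NP-40 at 4°C. Before that, crude K562 extract at 1 mg/mL protein in PBS pH 7.4 with 1 mM MgCl2 was treated with 10 μM compound for 30 min and heated for 3 min across 48°C-58°C. Quantification used TMTpro 16plex LC-MS/MS with channel sums equalised, and values are log-two fold changes in thermal stability relative to solvent controls from duplicates.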
For the target ETNK1 (UniProt Q9HBU6), the log2 fold change was inactive: 0.002. Regarding FAM83A (UniProt Q86UY5), the log2 fold change was inactive: 0.015. With FADS3 (UniProt Q9Y5Q0) the figure was inactive: -0.08; with EXOC2 (UniProt Q96KP1), inactive: -0.048. Regarding FAM120A isoform 6 (UniProt Q9NZB2), the log2 fold change is inactive: 0.003. With EXOSC5 (UniProt Q9NQT4) the figure was inactive: 0.011. With FAM162A (UniProt Q96A26) the figure was inactive: 0.081; with EZH2 isoform 2 (UniProt Q15910), inactive: 0.009; with EXOC4 (UniProt Q96A65), inactive: -0.084. With EXOSC4 (UniProt Q9NPD3) the figure was inactive: -0.018; with ESS2 (UniProt Q96DF8), inactive: 0.046; with EXOC6 (UniProt Q8TAG9), inactive: -0.017. FADS1, A0A0A0MR51: the log2 fold change is inactive: 0.011. Take F5 (UniProt P12259): the log2 fold change is inactive: 0.037. With FAM207A (UniProt Q9NSI2) the figure was inactive: 0.025; with ESD (UniProt P10768), inactive: -0.026; with FAM122A (UniProt Q96E09), inactive: 0.189. With FAM114A2 (UniProt Q9NRY5), the log2 fold change was inactive: 0.037. With FAM136A (UniProt Q96C01), the log2 fold change is inactive: 0. Regarding EXOC3 (UniProt O60645), the log2 fold change was inactive: -0.037. Take EYA3 (UniProt Q99504): the log2 fold change is inactive: 0.013. For ERVK3-1, A0A0U1RQV1, the log2 fold change was inactive: 0.053. With ERLEC1 (UniProt Q96DZ1), the log2 fold change is inactive: -0.009. On to ESYT1 isoform 2 (UniProt Q9BSJ8), for which the log2 fold change is inactive: -0.022.
